{"source": "patent US20230184775A1", "about": "“KINDLIN-1 AS A MARKER OF SENSITIVITY TO EGFR/RAS PATHWAY INHIBITORS” (INSTITUT CURIE, priority 2020, published 2023)", "tested_on": "triple negative breast cancer PDX models", "experiment": "Tumor growth in triple negative breast cancer patient derived xenografts (PDX)", "type": "in vivo, mice", "conditions": "50 mg/Kg orally, 5 days per week during 5 weeks", "note": "At least one structure is not confirmed: it was looked up by name or label, or the drawing left a doubt.", "data": [{"smiles": "Cn1cnc2c(F)c(Nc3ccc(Br)cc3Cl)c(C(=O)NOCCO)cc21", "note": "[Selumetinib]", "values": [{"measurement": "effect on tumor growth", "setting": "PDXs highly expressing Kindlin-1 protein", "result": "important effect inhibiting tumor growth"}, {"measurement": "effect on tumor growth", "setting": "PDXs with a lower Kindlin-1 expression", "result": "not observed"}]}]}
